Assay results taken from US20190011435A1, “FLY AVATARS FOR CANCER AND USES THEREOF” (ICAHN SCHOOL OF MEDICINE AT MOUNT SINAI, priority 2015, published 2019).
For at least one compound, name, drawing or mass did not settle the structure.

Tested on: btl>RasI, PTENi
Assay: Rescue of lethality in lung cancer generic fly avatar, drug in food
Assay type: in vivo, Drosophila
Conditions: FIG. 8

Row | Compound | synergy with trametinib in rescue of larval lethality (select concentrations, μM food concentration) | rescue of larval lethality (1μM food concentration, 25° C., p<0.0001)
1 | CC(C)n1c(/C=C/C(O)CC(O)CC(=O)O)c(-c2ccc(F)cc2)c2ccccc21 (centres unmarked) [Fluvastatin] | synergized with trametinib | 
2 | CC(=O)Nc1cccc(-n2c(=O)n(C3CC3)c(=O)c3c(Nc4ccc(I)cc4F)n(C)c(=O)c(C)c32)c1 [trametinib] |  | rescued
